From the supplement of paper PMC12819154, “High-throughput peptide-centric local stability assay extends protein–ligand identification to membrane proteins, tissues and bacteria” (Nature Structural & Molecular Biology, 2025)
The list shows a part of the results. Most entries show no effect beyond the scatter of the controls.

By UniProt entry, the sequences of proteins in these tests, tags left out. Where a name states a change or a piece, a line headed by the entry shows the natural chain unless it says otherwise.
UniProt P77454: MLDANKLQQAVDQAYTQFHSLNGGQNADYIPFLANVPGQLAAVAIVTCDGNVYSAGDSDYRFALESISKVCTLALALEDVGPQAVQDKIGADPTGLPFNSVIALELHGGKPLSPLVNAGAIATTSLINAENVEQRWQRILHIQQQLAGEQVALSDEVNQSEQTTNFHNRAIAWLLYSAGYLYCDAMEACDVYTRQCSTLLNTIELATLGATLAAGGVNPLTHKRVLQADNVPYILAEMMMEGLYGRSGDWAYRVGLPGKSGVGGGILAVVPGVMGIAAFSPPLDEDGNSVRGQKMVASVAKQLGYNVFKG
UniProt P76543: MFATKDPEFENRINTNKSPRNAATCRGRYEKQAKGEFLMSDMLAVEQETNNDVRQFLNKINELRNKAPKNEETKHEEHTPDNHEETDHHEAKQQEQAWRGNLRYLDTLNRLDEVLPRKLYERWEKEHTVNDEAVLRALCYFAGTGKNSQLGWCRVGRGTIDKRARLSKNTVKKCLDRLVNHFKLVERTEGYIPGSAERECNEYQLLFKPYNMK
UniProt P76052: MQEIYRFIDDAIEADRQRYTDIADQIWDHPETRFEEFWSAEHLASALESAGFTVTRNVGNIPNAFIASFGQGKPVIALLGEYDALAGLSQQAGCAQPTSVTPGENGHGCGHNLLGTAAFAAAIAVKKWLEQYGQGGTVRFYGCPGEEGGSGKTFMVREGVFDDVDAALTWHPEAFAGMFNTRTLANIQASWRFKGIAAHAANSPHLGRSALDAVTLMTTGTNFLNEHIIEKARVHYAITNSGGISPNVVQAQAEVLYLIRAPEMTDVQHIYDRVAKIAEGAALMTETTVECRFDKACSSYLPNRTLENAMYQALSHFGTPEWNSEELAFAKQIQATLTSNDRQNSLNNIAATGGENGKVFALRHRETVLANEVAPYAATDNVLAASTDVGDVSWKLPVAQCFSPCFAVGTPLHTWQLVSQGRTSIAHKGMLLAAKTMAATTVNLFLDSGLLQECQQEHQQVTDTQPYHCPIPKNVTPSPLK
UniProt P77485: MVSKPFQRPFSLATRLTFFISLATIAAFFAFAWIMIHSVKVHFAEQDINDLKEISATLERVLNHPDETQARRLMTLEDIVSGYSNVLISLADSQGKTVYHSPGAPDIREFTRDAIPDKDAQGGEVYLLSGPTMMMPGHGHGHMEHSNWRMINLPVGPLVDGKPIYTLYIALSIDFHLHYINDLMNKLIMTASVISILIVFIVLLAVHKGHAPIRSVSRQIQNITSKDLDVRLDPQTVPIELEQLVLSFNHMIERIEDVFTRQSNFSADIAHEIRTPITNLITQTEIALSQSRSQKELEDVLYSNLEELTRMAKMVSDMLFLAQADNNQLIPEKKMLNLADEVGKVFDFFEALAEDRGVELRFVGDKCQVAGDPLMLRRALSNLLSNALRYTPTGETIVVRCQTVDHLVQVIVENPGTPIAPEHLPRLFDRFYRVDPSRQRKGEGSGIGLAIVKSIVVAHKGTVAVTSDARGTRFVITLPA
UniProt P77302: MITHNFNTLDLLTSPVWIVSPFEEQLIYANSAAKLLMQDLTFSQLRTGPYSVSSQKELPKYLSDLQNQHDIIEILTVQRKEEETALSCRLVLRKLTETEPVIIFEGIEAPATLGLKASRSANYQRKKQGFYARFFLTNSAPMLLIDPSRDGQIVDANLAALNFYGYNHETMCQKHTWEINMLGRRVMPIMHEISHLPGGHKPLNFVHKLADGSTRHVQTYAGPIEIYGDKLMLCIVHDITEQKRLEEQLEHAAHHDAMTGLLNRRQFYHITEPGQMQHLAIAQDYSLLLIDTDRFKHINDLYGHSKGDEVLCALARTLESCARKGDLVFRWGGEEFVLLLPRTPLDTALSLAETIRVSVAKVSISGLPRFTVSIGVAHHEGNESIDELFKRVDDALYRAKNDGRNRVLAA
UniProt P77239: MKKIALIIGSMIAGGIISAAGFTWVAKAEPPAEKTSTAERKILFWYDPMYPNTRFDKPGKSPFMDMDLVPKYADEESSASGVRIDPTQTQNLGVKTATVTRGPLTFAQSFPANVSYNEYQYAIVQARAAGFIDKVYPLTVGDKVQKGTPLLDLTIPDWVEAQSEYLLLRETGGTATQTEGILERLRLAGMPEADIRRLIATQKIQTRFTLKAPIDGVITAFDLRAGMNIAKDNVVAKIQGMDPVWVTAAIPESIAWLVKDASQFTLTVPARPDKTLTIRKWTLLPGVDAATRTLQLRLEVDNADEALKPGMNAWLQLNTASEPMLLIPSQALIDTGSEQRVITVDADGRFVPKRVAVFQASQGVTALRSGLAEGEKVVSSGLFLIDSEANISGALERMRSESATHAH
UniProt P76541: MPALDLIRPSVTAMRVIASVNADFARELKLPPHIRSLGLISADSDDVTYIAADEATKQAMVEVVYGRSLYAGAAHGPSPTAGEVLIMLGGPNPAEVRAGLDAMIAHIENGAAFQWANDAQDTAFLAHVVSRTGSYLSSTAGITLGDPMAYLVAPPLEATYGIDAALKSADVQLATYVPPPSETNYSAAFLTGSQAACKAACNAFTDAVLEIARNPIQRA
UniProt P77337: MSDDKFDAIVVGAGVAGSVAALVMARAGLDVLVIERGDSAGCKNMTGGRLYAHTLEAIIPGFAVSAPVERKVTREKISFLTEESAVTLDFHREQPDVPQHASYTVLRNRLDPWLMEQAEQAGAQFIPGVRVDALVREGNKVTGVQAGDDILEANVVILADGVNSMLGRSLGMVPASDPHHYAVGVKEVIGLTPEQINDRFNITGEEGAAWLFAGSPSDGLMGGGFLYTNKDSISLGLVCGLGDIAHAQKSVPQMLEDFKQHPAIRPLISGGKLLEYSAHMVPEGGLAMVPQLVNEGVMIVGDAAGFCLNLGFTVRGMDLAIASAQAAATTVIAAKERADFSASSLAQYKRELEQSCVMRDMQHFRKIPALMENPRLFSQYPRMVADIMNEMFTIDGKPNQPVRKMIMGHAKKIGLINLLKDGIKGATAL
UniProt P77330: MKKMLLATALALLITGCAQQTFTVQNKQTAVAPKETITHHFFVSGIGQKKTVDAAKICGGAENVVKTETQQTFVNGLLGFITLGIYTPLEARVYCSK
UniProt P76340: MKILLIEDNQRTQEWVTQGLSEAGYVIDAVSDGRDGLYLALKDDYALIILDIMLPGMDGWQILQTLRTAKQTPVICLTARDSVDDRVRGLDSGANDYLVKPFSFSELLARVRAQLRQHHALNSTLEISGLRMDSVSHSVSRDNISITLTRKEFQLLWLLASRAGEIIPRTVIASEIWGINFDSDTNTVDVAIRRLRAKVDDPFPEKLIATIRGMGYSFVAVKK
UniProt P76102: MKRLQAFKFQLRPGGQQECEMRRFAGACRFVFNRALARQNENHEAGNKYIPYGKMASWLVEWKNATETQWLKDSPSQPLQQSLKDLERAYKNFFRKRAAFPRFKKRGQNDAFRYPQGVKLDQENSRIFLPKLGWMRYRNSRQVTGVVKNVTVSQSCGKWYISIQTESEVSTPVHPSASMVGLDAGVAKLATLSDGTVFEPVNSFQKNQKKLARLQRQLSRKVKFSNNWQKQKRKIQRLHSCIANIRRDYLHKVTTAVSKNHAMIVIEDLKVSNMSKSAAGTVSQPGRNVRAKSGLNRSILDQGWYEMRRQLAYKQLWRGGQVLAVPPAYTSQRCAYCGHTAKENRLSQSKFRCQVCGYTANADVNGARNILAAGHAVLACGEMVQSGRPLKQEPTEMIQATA
UniProt P75960: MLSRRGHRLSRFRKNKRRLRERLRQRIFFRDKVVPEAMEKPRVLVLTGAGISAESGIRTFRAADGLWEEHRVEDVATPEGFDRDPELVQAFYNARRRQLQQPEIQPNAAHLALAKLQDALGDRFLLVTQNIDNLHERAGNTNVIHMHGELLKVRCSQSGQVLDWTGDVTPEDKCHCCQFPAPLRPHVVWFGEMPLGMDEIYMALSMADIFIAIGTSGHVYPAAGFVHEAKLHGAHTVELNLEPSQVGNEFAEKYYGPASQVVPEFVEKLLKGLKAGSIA
UniProt P75869: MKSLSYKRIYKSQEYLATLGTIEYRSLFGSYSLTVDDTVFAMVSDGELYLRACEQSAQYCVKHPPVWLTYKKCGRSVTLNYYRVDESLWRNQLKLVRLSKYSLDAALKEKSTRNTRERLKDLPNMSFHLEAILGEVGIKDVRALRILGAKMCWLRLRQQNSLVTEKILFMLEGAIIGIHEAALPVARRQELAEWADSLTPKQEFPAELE
UniProt P77609: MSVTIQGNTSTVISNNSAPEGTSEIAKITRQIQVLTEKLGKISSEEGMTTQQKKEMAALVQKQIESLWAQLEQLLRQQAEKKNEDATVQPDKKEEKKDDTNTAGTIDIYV
UniProt P76176: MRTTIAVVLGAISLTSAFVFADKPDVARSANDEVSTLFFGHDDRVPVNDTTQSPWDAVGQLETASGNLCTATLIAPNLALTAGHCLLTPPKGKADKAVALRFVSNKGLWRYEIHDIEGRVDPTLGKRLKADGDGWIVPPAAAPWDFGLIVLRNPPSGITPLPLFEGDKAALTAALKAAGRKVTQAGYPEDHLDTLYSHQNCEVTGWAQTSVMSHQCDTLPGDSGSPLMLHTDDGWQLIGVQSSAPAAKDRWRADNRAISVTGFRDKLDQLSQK
UniProt P77536: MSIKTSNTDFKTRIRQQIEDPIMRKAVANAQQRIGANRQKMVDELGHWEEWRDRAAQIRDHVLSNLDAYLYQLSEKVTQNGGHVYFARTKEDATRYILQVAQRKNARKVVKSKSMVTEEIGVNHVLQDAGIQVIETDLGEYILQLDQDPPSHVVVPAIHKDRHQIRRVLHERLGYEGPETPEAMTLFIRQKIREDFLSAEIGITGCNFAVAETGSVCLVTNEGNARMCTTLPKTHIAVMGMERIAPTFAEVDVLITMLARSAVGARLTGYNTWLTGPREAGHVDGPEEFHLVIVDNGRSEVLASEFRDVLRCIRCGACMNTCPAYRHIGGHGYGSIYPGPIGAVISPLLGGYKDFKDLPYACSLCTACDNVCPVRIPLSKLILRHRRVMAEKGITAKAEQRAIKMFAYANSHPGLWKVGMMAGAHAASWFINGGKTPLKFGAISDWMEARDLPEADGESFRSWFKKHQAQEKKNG
UniProt P76502: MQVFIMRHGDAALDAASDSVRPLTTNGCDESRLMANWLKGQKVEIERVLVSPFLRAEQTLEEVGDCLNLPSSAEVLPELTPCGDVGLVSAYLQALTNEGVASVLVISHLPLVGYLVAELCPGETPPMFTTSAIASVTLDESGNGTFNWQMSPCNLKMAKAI
UniProt P76236: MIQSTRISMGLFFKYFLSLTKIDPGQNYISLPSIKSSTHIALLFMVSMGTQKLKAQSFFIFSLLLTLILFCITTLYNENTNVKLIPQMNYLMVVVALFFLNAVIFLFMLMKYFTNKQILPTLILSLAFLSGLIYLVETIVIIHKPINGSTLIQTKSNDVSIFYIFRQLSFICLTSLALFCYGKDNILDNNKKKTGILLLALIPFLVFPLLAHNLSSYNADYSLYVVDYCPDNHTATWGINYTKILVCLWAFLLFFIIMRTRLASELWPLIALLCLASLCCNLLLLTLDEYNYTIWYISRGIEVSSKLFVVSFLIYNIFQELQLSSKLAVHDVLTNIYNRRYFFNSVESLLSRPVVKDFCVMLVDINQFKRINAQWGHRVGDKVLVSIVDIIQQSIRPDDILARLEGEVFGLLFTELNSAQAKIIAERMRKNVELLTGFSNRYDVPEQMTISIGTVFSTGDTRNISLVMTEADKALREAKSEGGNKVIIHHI
UniProt P77656: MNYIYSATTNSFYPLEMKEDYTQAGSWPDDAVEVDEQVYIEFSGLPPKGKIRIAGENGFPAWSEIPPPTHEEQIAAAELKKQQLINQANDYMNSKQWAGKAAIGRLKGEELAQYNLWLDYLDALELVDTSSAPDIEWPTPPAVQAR
UniProt P77161: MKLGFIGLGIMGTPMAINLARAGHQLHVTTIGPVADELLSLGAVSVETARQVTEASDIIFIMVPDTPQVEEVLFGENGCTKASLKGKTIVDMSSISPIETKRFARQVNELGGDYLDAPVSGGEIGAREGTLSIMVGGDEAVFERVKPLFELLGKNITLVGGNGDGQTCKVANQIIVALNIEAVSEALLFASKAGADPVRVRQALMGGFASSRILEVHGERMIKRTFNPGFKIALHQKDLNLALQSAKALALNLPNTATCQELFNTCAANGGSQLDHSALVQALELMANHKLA
UniProt P77552: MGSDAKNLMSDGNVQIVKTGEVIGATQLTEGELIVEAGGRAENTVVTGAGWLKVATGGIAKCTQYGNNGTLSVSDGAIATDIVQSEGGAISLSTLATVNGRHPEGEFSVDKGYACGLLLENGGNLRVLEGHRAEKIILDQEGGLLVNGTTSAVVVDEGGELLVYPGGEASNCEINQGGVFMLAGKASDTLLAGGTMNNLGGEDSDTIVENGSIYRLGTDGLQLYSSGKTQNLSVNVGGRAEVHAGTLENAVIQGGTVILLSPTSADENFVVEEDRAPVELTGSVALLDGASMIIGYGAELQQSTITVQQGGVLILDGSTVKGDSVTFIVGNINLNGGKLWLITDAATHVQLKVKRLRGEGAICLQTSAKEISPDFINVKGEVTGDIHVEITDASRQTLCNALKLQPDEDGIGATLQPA

Compound: CC1(C)S[C@@H]2[C@H](NC(=O)[C@H](N)c3ccccc3)C(=O)N2[C@H]1C(=O)O [ampicillin]
Experiment: log2 fold change of tryptic peptide abundance, ligand vs vehicle (limited proteolysis) (log2 ratio); higher = more trypsin-susceptible (destabilized)
Settings: ligand concentration: 10 uM; sample: E. coli crude lysate

Row | Target | log2 fold change
1 | UniProt P76396 (peptide sequence: STPGTEVVLEAPK, peptide start residue: 202) | 0.238
2 | UniProt P77454 (peptide sequence: QLGYNVFKG, peptide start residue: 302) | -0.259
3 | UniProt P76543 (peptide sequence: WEKEHTVNDEAVLR, peptide start residue: 123) | -0.406
4 | UniProt P76052 (peptide sequence: FIDDAIEADR, peptide start residue: 7) | -0.0967
5 | UniProt P77485 (peptide sequence: QSNFSADIAHEIR, peptide start residue: 262) | 0.477
6 | UniProt P76389 (peptide sequence: ATMELNER, peptide start residue: 101) | -0.179
7 | UniProt P77302 (peptide sequence: KKQGFYAR, peptide start residue: 126) | -0.701
8 | UniProt P77316 (peptide sequence: GYEIFEKR, peptide start residue: 370) | -0.418
9 | UniProt P76001 (peptide sequence: INQTTTKMLFMCRE, peptide start residue: 109) | 0.336
10 | UniProt P77239 (peptide sequence: IDPTQTQNLGVK, peptide start residue: 84) | 0.141
11 | UniProt P76418 (peptide sequence: ENNAACYFNR, peptide start residue: 47) | -0.288
12 | UniProt P76208 (peptide sequence: EGVEDQLILEK, peptide start residue: 117) | -0.0227
13 | UniProt P76541 (peptide sequence: VIASVNADFAR, peptide start residue: 16) | 0.0205
14 | UniProt P76014 (peptide sequence: VVEKLPAIADKDIGFILK, peptide start residue: 49) | 0.0681
15 | UniProt P75938 (peptide sequence: AVPVEGLSLPTR, peptide start residue: 43) | -0.149
16 | UniProt P76250 (peptide sequence: AGFAAVAEELGVSPAFVSKR, peptide start residue: 20) | 0.473
17 | UniProt P77337 (peptide sequence: QHPAIRPLISGGK, peptide start residue: 260) | -0.381
18 | UniProt P77330 (peptide sequence: ETITHHFFVSGIGQK, peptide start residue: 35) | -0.116
19 | UniProt P76340 (peptide sequence: QHHALNSTLEISGLR, peptide start residue: 117) | 0.169

Row | Target | log2 fold change
20 | UniProt P76082 (peptide sequence: VLLLTLNRPAAR, peptide start residue: 12) | -0.116
21 | UniProt P76471 (peptide sequence: YTIMRPVSIEAGYR, peptide start residue: 140) | 0.0169
22 | UniProt P76555 (peptide sequence: AGDVMFIPK, peptide start residue: 199) | 0.137
23 | UniProt P76102 (peptide sequence: FQLRPGGQQECEMR, peptide start residue: 9) | 0.31
24 | UniProt P77561 (peptide sequence: KIESYQGAAGGWGAVK, peptide start residue: 4) | -0.0721
25 | UniProt P75960 (peptide sequence: AADGLWEEHR, peptide start residue: 62) | 0.276
26 | UniProt P75869 (peptide sequence: VDESLWR, peptide start residue: 84) | -0.11
27 | UniProt P77609 (peptide sequence: KNEDATVQPDKK, peptide start residue: 82) | 0.403
28 | UniProt P76513 (peptide sequence: SLMESVEAK, peptide start residue: 188) | -0.158
29 | UniProt P76176 (peptide sequence: DKLDQLSQK, peptide start residue: 265) | 0.152
30 | UniProt P77536 (peptide sequence: TPLKFGAISDWMEAR, peptide start residue: 436) | -0.579
31 | UniProt P76502 (peptide sequence: LMANWLK, peptide start residue: 33) | -0.153
32 | UniProt P76576 (peptide sequence: GEALLSKGDK, peptide start residue: 165) | 0.141
33 | UniProt P76520 (peptide sequence: QYYEANLALK, peptide start residue: 186) | -0.118
34 | UniProt P76236 (peptide sequence: EAKSEGGNK, peptide start residue: 477) | 0.0593
35 | UniProt P77656 (peptide sequence: KQQLINQANDYMNSK, peptide start residue: 81) | -0.154
36 | UniProt P77161 (peptide sequence: QALMGGFASSR, peptide start residue: 202) | -0.444
37 | UniProt P77552 (peptide sequence: HPEGEFSVDK, peptide start residue: 102) | 0.297

Exported in markdown: entries from further up

| Row | Target | log2 fold change |
| --- | --- | --- |
| 23 | UniProt P76102 (peptide sequence: FQLRPGGQQECEMR, peptide start residue: 9) | 0.31 |
| 24 | UniProt P77561 (peptide sequence: KIESYQGAAGGWGAVK, peptide start residue: 4) | -0.0721 |
| 25 | UniProt P75960 (peptide sequence: AADGLWEEHR, peptide start residue: 62) | 0.276 |
| 26 | UniProt P75869 (peptide sequence: VDESLWR, peptide start residue: 84) | -0.11 |
| 29 | UniProt P76176 (peptide sequence: DKLDQLSQK, peptide start residue: 265) | 0.152 |
| 30 | UniProt P77536 (peptide sequence: TPLKFGAISDWMEAR, peptide start residue: 436) | -0.579 |
| 31 | UniProt P76502 (peptide sequence: LMANWLK, peptide start residue: 33) | -0.153 |
| 35 | UniProt P77656 (peptide sequence: KQQLINQANDYMNSK, peptide start residue: 81) | -0.154 |
| 37 | UniProt P77552 (peptide sequence: HPEGEFSVDK, peptide start residue: 102) | 0.297 |
